In patent US20070098801A1, “Particles shaped as platelets” (JANSSEN PHARMACEUTICA N.V., priority 2003, published 2007):
At least one compound was matched to its structure with a doubt left.

Experiment: Modulated differential scanning calorimetry (glass transition in the reversing signal)
Assay type: physicochemical
Experimental: Modulated Differential scanning calorimetry (MDSC) was performed to evaluate the thermal characteristics before and after melt extrusion with injection of pressurized carbon dioxide. […] A glass transition is observed as an inflection in the DSC profile when heat flow is plotted against temperature. Often, the glass transition is accompanied with an enthalpy relaxation, which is seen as an endothermic signal superimposed on the glass transition. Furthermore, these polymers can be hydrophilic and thus they may have adsorbed a significant amount of water. Evaporation of water is also an endothermic process. These signals make interpretation of the glass transition difficult. Therefore, MDSC was used so that the different thermal events could be elucidated with regard to the reversible and non-reversible transitions. […]
The measurements were performed using a TA Instruments modulated DSC Q1000 differential scanning calorimeter and thermal analysis controller (TA Instruments, New Castle, Del., USA). […] The samples were analysed in standard (open) aluminum as well as in hermetically sealed TA Instruments pans. […] The glass transition was measured at the inflection point as half the height of the shift in the heat flow signal (Tg 1/2 cp). […]
The samples measured in open pans as well as in hermetically sealed pans were analysed at least in duplicate.

With CCC(C)n1ncn(-c2ccc(N3CCN(c4ccc(OCC5COC(Cn6cncn6)(c6ccc(Cl)cc6Cl)O5)cc4)CC3)cc2)c1=O (stereo not shown) [itraconazole] the “Tg of the pure component used in the Fox equation” value was 332 K.
